Data as given in PubChem BioAssay AID1259425 (University of Nebraska Medical Center, 2018).
Aim: 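Seek colon cancer weak points whose silencing resembles KSR1 loss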 (primary screen). Cell system: HCT116 human colon cancer cells. Reagent: siRNA pool against human genes, 50 nM siRNA. Measurement: 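After 50 nM siRNA pool, branched-DNA assay measures six marker transcripts per well, minus blank, normalised to the geometric mean of two housekeeping transcripts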. Reading the numbers: BNIP3L mRNA: higher = more BNIP3L transcript after knockdown; NDRG1 mRNA: higher = more NDRG1 transcript after knockdown.
Shown is a random part of about 14,000 reagents. Further read-outs or replicates are left out here. Not stated in the record: the time to read-out.

| gene | BNIP3L mRNA, set 1 | NDRG1 mRNA, set 1 |
| --- | --- | --- |
| ZCCHC9 | 0.29 | 0.273 |
| IL17RB | 0.0797 | 0.0702 |
| FAR2 | 0.111 | 0.323 |
| IMPG2 | 0.127 | 0.133 |
| JAG2 | 0.135 | 0.224 |
| GPCPD1 | 0.207 | 0.452 |
| SOX9 | 0.0553 | 0.175 |
| PFKP | 0.0954 | 0.419 |
| PPP1R8 | 0.0839 | 0.119 |
| CFLAR | 0.171 | 0.483 |
| CMAS | 0.135 | 0.15 |
| HOXC8 | 0.109 | 0.13 |
| BGN | 0.0536 | 0.172 |
| RNASE7 | 0.156 | 0.168 |
| ARHGEF5 | 0.172 | 0.117 |
| ZNF354A | 0.0891 | 0.138 |
| PREP | 0.0925 | 0.344 |
| MYH11 | 0.0989 | 0.0361 |
| MLC1 | 0.235 | 0.0942 |
| DCAF16 | 0.122 | 0.131 |

Targets listed so far whose gene name begins with I or i:
| gene | BNIP3L mRNA, set 1 | NDRG1 mRNA, set 1 |
| --- | --- | --- |
| IL17RB | 0.0797 | 0.0702 |
| IMPG2 | 0.127 | 0.133 |
